Reference: patent EP4450973A1, “NEW TARGETS FOR DIAGNOSING AND TREATING ALZHEIMER'S DISEASE AND USE THEREOF” (Shanghai JW Inflinhix Co., Ltd., priority 2021, dated 2024)
Part of at least one peptide drawing is inferred or uncertain, most often the ends. Where a SMILES comes first, the peptide text is derived from it.

Test system: HMC3 cells
Test: Experiment on glial cell: HMC3 cell survival, cck8 reagent
Type: cell-based, human
Conditions: 50 uM/ml polypeptide, co-cultured 24h, cck8, absorbance at OD450nm, compared to the control (Fig. 14)

SMILES	number of HMC3 viable cells
CC[C@H](C)[C@H](NC(=O)[C@H](CCCNC(=N)N)NC(=O)[C@H](CO)NC(=O)[C@@H](NC(=O)[C@@H](NC(=O)[C@H](Cc1c[nH]cn1)NC(=O)[C@@H](NC(=O)[C@H](CC(C)C)NC(=O)[C@H](CC(C)C)NC(=O)[C@@H](NC(=O)[C@H](Cc1c[nH]cn1)NC(=O)[C@@H](NC(=O)[C@H](CO)NC(=O)[C@@H]1CCCN1C(=O)[C@H](CS)NC(=O)CNC(=O)[C@H](CCC(N)=O)NC(=O)CNC(=O)[C@@H](N)CCCCN)[C@@H](C)O)C(C)C)[C@@H](C)O)[C@@H](C)O)[C@@H](C)CC)C(=O)N[C@@H](C)C(=O)N[C@H](C(=O)N[C@@H](CO)C(=O)N[C@@H](Cc1ccc(O)cc1)C(=O)N[C@@H](CCC(N)=O)C(=O)N[C@H](C(=O)N[C@@H](CCCCN)C(=O)N[C@H](C(=O)N[C@@H](CC(N)=O)C(=O)N[C@@H](CC(C)C)C(=O)N[C@@H](CC(C)C)C(=O)O)C(C)C)[C@@H](C)O)C(C)C [P1516] (H-KGQGCPSTHVLLTHTISRIAVSYQTKVNLL-OH)	extremely significantly reduced the number of HMC3 viable cells
CC[C@H](C)[C@H](NC(=O)[C@@H]1CCCN1C(=O)[C@H](CCC(=O)O)NC(=O)[C@H](Cc1ccc(O)cc1)NC(=O)[C@H](Cc1c[nH]c2ccccc12)NC(=O)[C@@H]1CCCN1C(=O)[C@H](CCCCN)NC(=O)[C@H](C)NC(=O)[C@H](CCC(=O)O)NC(=O)[C@H](C)NC(=O)CNC(=O)[C@H](CCC(=O)O)NC(=O)[C@@H]1CCCN1C(=O)[C@@H](N)[C@@H](C)O)C(=O)N[C@@H](Cc1ccc(O)cc1)C(=O)N[C@@H](CC(C)C)C(=O)NCC(=O)NCC(=O)N[C@H](C(=O)N[C@@H](Cc1ccccc1)C(=O)N[C@@H](CCC(N)=O)C(=O)N[C@@H](CC(C)C)C(=O)N[C@@H](CCC(=O)O)C(=O)N[C@@H](CCCCN)C(=O)NCC(=O)N[C@@H](CC(=O)O)C(=O)N[C@@H](CCCNC(=N)N)C(=O)N[C@@H](CC(C)C)C(=O)N[C@@H](CO)C(=O)N[C@@H](C)C(=O)O)C(C)C [P1920] (H-TPEGAEAKPWYEPIYLGGVFQLEKGDRLSA-OH)	extremely significantly reduced the number of HMC3 viable cells
